Article PMC10065446
These are yes or no findings as the source states them, for the method shown. In cells and extracts the contact can be indirect. Some binding calls cover weakened binding; strength is not graded here.

Chains of the proteins cited; added tags and fusions are not shown.
UniProt P17931: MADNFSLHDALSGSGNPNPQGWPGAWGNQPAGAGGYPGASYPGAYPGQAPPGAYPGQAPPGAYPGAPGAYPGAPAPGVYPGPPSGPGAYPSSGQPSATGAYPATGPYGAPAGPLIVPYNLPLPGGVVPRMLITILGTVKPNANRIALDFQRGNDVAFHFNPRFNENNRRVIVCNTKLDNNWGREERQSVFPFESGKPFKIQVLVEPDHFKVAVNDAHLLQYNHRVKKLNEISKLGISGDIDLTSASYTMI

What was measured:
[1] = molecular target: human galectin-3, C-terminally HA-tagged (full-length form) (human) (UniProt P17931); assay: co-IP; HEK293T ADAM10/17-/- cells transfected with galectin-3 (C-terminal HA) and meprin α or meprin β alone; lysis in 50 mM tris-HCl pH 7.4, 120 mM NaCl, 0.5% NP-40; IP with anti-HA-tag antibody on Protein G Dynabeads; Western blot
[2] = molecular target: human galectin-3, C-terminally HA-tagged (full-length form) (human) (UniProt P17931); assay: co-IP; fig. S5B: catalytically inactive meprin β–E153A with galectin-3 in transfected cells; legend and set-up not shown

B1: human meprin β (enzyme, UniProt Q16820 62-701)
chain: NSIIGEKYRWPHTIPYVLEDSLEMNAKGVILNAFERYRLKTCIDFKPWAGETNYISVFKGSGCWSSVGNRRVGKQELSIGANCDRIATVQHEFLHALGFWHEQSRSDRDDYVRIMWDRILSGREHNFNTYSDDISDSLNVPYDYTSVMHYSKTAFQNGTEPTIVTRISDFEDVIGQRMDFSDSDLLKLNQLYNCSSSLSFMDSCSFELENVCGMIQSSGDNADWQRVSQVPRGPESDHSNMGQCQGSGFFMHFDSSSVNVGATAVLESRTLYPKRGFQCLQFYLYNSGSESDQLNIYIREYSADNVDGNLTLVEEIKEIPTGSWQLYHVTLKVTKKFRVVFEGRKGSGASLGGLSIDDINLSETRCPHHIWHIRNFTQFIGSPNGTLYSPPFYSSKGYAFQIYLNLAHVTNAGIYFHLISGANDDQLQWPCPWQQATMTLLDQNPDIRQRMSNQRSITTDPFMTTDNGNYFWDRPSKVGTVALFSNGTQFRRGGGYGTSAFITHERLKSRDFIKGDDVYILLTVEDISHLNSTQIQLTPAPSVQDLCSKTTCKNDGVCTVRDGKAECRCQSGEDWWYMGERCEKRGSTRDTIVIAVSSTVAVFALMLIITLVSVYCTRKKYRERMSSNRPNLTPQNQHAF
**Q.** How did the binding [1] turn out when B1 was run?
**A.** Its binding is “binds”.

B2: human meprin β–E153A (catalytically inactive variant) (enzyme, UniProt Q16820 62-701)
chain: NSIIGEKYRWPHTIPYVLEDSLEMNAKGVILNAFERYRLKTCIDFKPWAGETNYISVFKGSGCWSSVGNRRVGKQELSIGANCDRIATVQHAFLHALGFWHEQSRSDRDDYVRIMWDRILSGREHNFNTYSDDISDSLNVPYDYTSVMHYSKTAFQNGTEPTIVTRISDFEDVIGQRMDFSDSDLLKLNQLYNCSSSLSFMDSCSFELENVCGMIQSSGDNADWQRVSQVPRGPESDHSNMGQCQGSGFFMHFDSSSVNVGATAVLESRTLYPKRGFQCLQFYLYNSGSESDQLNIYIREYSADNVDGNLTLVEEIKEIPTGSWQLYHVTLKVTKKFRVVFEGRKGSGASLGGLSIDDINLSETRCPHHIWHIRNFTQFIGSPNGTLYSPPFYSSKGYAFQIYLNLAHVTNAGIYFHLISGANDDQLQWPCPWQQATMTLLDQNPDIRQRMSNQRSITTDPFMTTDNGNYFWDRPSKVGTVALFSNGTQFRRGGGYGTSAFITHERLKSRDFIKGDDVYILLTVEDISHLNSTQIQLTPAPSVQDLCSKTTCKNDGVCTVRDGKAECRCQSGEDWWYMGERCEKRGSTRDTIVIAVSSTVAVFALMLIITLVSVYCTRKKYRERMSSNRPNLTPQNQHAF
**Q.** With B2 as the binder, how does the binding [2] read?
**A.** The binding was “binds”.
